Publication doi:10.1101/2020.06.24.169326
Results are given in words; binding and its absence hold for the method and conditions named. In cells and extracts the contact can be indirect. A result given as binding can be weak or reduced; the word gives no strength. Sequences can lack the tags named with a protein.

Biological target: His-tagged Deinococcus radiodurans topoisomerase IB expressed from pETtopoIB in E. coli (Deinococcus radiodurans)
Assay: co-IP

| Binder | binding |
| --- | --- |
| ParB2 with T18 tag, expressed in E. coli (protein, UniProt Q9RZE7 1-293) MTRRRPERRRDLLGLLGETPVDLSQANDIRALPVNELKVGSTQPRRSFDLERLSELAESIRAHGVLQPLLVRSVDGQYEIVAGERRWRAAQLAGLAEVPVVVRQLSNEQARAAALIENLQRDNLNVIDEVDGKLELIALTLGLEREEARKRLMQLLRAVPGDEHEQLDQVFRSMGETWRTFAKNKLRILNWPQPVLEALRAGLPLTLGSVVASAPPERQAELLKLAQNGASRSQLLQALQTPSQTSAVTPEHFAKVLSSKRFLSGLDTPTREALDRWLARMPERVRQAIDEQS | binds |
| ParB1 with T18 tag, expressed in E. coli (protein, UniProt Q9RYD8 1-288) MSKKSSLGRGLDALLTKKGEPVAQAGTGTQVQTLKIERIAQAAYQPRQVFEPESLAELAQSIREKGVLQPLLVRPRGDAFEIVAGERRWRASQLAGLTELPVMIRDLGDREALEIAIVENLQREDLGPLEEARAYQALLDQGLNQEGVAQAVGKGRSTVTNALRLLTLPEPVLRALDEGSISASHARAVLTQPEADRLWAFEQIRSRGLNVREAEALKRERGGRDKGQGAPIKVNPPRAYRQLELDLSRRTGTRVKITGEDKGRVELNYGSREELDRILQILGYEAEE | binds |
